Paper PMC8749979
No constants are given. Whether binding was seen depends on the method and setting. Binding seen in cells or lysates may run through a third protein. Some binding calls cover weakened binding; strength is not graded here.

By UniProt entry, the sequences of proteins in these tests, tags left out.
UniProt Q07666: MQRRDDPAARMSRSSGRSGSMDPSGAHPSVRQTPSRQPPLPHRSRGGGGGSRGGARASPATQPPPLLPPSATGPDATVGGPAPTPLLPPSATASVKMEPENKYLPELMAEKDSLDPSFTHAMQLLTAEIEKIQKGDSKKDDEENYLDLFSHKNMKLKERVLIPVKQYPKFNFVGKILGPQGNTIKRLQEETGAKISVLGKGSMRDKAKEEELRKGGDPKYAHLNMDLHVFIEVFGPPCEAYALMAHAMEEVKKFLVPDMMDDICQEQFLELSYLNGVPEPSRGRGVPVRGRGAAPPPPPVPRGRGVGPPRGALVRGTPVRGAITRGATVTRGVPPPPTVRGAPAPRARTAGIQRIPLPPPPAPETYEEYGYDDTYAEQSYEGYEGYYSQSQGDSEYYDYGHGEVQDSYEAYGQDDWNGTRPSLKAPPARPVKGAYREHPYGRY

Legend:
[1] = molecular target: SRC associated in mitosis of 68 kDa (SAM68) (human (endogenous in CL1-5)) (UniProt Q07666); experiment: co-IP + cross-linking; CL1-5 cells treated with 1 mM cross-linker DSP for 15 min at RT before lysis; same lysis buffer; immunoprecipitation with anti-SAM68, protein G magnetic beads, 4 °C overnight; Western blot
[2] = molecular target: SRC associated in mitosis of 68 kDa (SAM68) (human (endogenous in CL1-5)) (UniProt Q07666); experiment: co-IP; lysates of untreated CL1-5 cells (no cross-linker); lysis buffer 150 mM NaCl, 0.5% sodium deoxycholate, 1% NP-40, 0.1% SDS; 1 mg lysate with 1 ug anti-SAM68, anti-OGT or control IgG and protein G magnetic beads, 4 °C overnight; Western blot

B1: O-GlcNAc transferase (OGT) (enzyme, UniProt O15294 1-1046)
chain: MASSVGNVADSTEPTKRMLSFQGLAELAHREYQAGDFEAAERHCMQLWRQEPDNTGVLLLLSSIHFQCRRLDRSAHFSTLAIKQNPLLAEAYSNLGNVYKERGQLQEAIEHYRHALRLKPDFIDGYINLAAALVAAGDMEGAVQAYVSALQYNPDLYCVRSDLGNLLKALGRLEEAKACYLKAIETQPNFAVAWSNLGCVFNAQGEIWLAIHHFEKAVTLDPNFLDAYINLGNVLKEARIFDRAVAAYLRALSLSPNHAVVHGNLACVYYEQGLIDLAIDTYRRAIELQPHFPDAYCNLANALKEKGSVAEAEDCYNTALRLCPTHADSLNNLANIKREQGNIEEAVRLYRKALEVFPEFAAAHSNLASVLQQQGKLQEALMHYKEAIRISPTFADAYSNMGNTLKEMQDVQGALQCYTRAIQINPAFADAHSNLASIHKDSGNIPEAIASYRTALKLKPDFPDAYCNLAHCLQIVCDWTDYDERMKKLVSIVADQLEKNRLPSVHPHHSMLYPLSHGFRKAIAERHGNLCLDKINVLHKPPYEHPKDLKLSDGRLRVGYVSSDFGNHPTSHLMQSIPGMHNPDKFEVFCYALSPDDGTNFRVKVMAEANHFIDLSQIPCNGKAADRIHQDGIHILVNMNGYTKGARNELFALRPAPIQAMWLGYPGTSGALFMDYIITDQETSPAEVAEQYSEKLAYMPHTFFIGDHANMFPHLKKKAVIDFKSNGHIYDNRIVLNGIDLKAFLDSLPDVKIVKMKCPDGGDNADSSNTALNMPVIPMNTIAEAVIEMINRGQIQITINGFSISNGLATTQINNKAATGEEVPRTIIVTTRSQYGLPEDAIVYCNFNQLYKIDPSTLQMWANILKRVPNSVLWLLRFPAVGEPNIQQYAQNMGLPQNRIIFSPVAPKEEHVRRGQLADVCLDTPLCNGHTTGMDVLWAGTPMVTMPGETLASRVAASQLTCLGCLELIAKNRQEYEDIAVKLGTDLEYLKKVRGKVWKQRISSPLFNTKQYTMELERLYLQMWEHYAAGNKPDHMIKPVEVTESA
With B1 the binding [1] was “binds” and the binding [2] was “binds weakly”.
